According to article PMC7819943, “Rice protein-binding microarrays: a tool to detect cis-acting elements near promoter regions in rice”:
The list shows a part of the results.

target: T1, OsSMF1 (Oryza sativa, UniProt Q6ZLB0 1-436); experiment: protein-binding microarray (RPBM); PBS, 2% BSA, 51.3 ng/ul salmon testes DNA, 50 uM zinc acetate, 200 nM TF, 25 C, 1 h; high values mean tight binding; conditions: protein: recombinant; tags: N-terminal polyhistidine and DsRed monomer fusion (pET32a); chain copies: 2; label: CyDye5-dUTP incorporated in the synthesized complementary strand; 3' TTTTT single-stranded linker to array surface; dsDNA, one strand shown
T1 sequence: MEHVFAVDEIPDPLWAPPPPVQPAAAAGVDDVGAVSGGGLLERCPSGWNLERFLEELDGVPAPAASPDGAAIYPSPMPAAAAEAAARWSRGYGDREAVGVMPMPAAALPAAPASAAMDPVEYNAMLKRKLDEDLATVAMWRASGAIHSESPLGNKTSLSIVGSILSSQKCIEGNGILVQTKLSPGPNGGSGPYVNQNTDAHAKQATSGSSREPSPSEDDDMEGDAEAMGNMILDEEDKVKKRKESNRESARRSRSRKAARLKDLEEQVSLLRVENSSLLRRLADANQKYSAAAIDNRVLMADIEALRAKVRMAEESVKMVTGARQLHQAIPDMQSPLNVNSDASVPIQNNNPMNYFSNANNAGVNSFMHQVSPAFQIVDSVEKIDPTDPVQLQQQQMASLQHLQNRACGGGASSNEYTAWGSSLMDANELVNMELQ
How it was run: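 Binding signal is reported as fluorescence intensity per feature (arbitrary units) from an Axon 4000B scanner. Incubation used 200 nM of each Ni–NTA-purified, N-terminally polyhistidine- and DsRed-fused transcription factor from E. coli BL21-CodonPlus on a double-stranded custom Agilent array for 1 h at 25 °C, with 50 µM zinc acetate in the buffer, followed by washing.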

Row | Sequence | binding signal
1 | TTTGGGTAGATGAAACATATCATAGCTTGTTCAGTACTATCGGAGTCACCTAGTGCAG | 3270 fluorescence intensity (a.u.)
2 | ATTTTAATAATCCGCTTGCATCATTGCCTAGTTGCCTCTTCGGAGTCACCTAGTGCAG | 22700 fluorescence intensity (a.u.)
3 | CTTCTCCCTCACCATCACCAACAAGAGAGAGGAGGAGTGGCGGAGTCACCTAGTGCAG | 3590 fluorescence intensity (a.u.)
4 | TGCCTGGGAAGGCGGAGGAAAACGTGGGTCCGAAGGTGGGCGGAGTCACCTAGTGCAG | 24300 fluorescence intensity (a.u.)
5 | AGCTGCTTTCTGCGCTAATGACGGTGCGGGGCAGCGGCCGCGGAGTCACCTAGTGCAG | 6020 fluorescence intensity (a.u.)
6 | ATGTGGTTGTTCCATTTAGGATGGGGACGTGGCATCCTGTCGGAGTCACCTAGTGCAG | 15000 fluorescence intensity (a.u.)
7 | GCCCGCCACGTCTCTAAGTCGCTAGTACGCGCGAATTAGCCGGAGTCACCTAGTGCAG | 4350 fluorescence intensity (a.u.)
8 | CTGTCGCTTTTCTAGTGACGTGTGGCCCATACTTATTGGGCGGAGTCACCTAGTGCAG | 5870 fluorescence intensity (a.u.)
9 | GTTTCTAAATTTTGTTGCAACTTCCTTTCCAGGGTATCTGCGGAGTCACCTAGTGCAG | 3180 fluorescence intensity (a.u.)
10 | CTCGGCATGGCCCACAACTCCCGGAATCCGCCTCACGTGGCGGAGTCACCTAGTGCAG | 3420 fluorescence intensity (a.u.)
11 | GCAATGAGCTATATGCTGTACTGCCAGGGATGCTATGGTACGGAGTCACCTAGTGCAG | 5450 fluorescence intensity (a.u.)
12 | CTATATATATGTGATCCCTAGACTCCAGCTGTACTGCTGTCGGAGTCACCTAGTGCAG | 4800 fluorescence intensity (a.u.)
13 | ACGTACCTTGTATTTATCATCTGATCTGCGAATTGAGGCCCGGAGTCACCTAGTGCAG | 33300 fluorescence intensity (a.u.)
14 | TCCAAGTCTAGGGTTTCATCCTCCTCCTCCTCCTCCGCCGCGGAGTCACCTAGTGCAG | 20400 fluorescence intensity (a.u.)
15 | GTGACTACGGTAAGAAAATATCGAGTCAGCAAGAAAGCTACGGAGTCACCTAGTGCAG | 5650 fluorescence intensity (a.u.)
16 | TGCCTACATATAATATGTCAGACACGTACCTCACAAACCACGGAGTCACCTAGTGCAG | 4420 fluorescence intensity (a.u.)
17 | TCCAACTCAGTAATTTATTTGAGTATTACATGATATCATTCGGAGTCACCTAGTGCAG | 3160 fluorescence intensity (a.u.)
18 | AATATTTACATTACTAAATTAGTTTTATTAAATTAATAATCGGAGTCACCTAGTGCAG | 19800 fluorescence intensity (a.u.)
19 | ACCTTATTTGCATTGATTTTAGGAGTTAAGGGACGCGTCACGGAGTCACCTAGTGCAG | 5920 fluorescence intensity (a.u.)
20 | GCTTAACTGCTAGTACTACTAACACCTCACCTACCTCCCTCGGAGTCACCTAGTGCAG | 3200 fluorescence intensity (a.u.)
21 | TGATGGCGGCTTTAGGTGACATGCAGCATTAAGTGGCATGCGGAGTCACCTAGTGCAG | 4460 fluorescence intensity (a.u.)

Some values from the results shown.
binding signal with GCAATGAGCTATATGCTGTACTGCCAGGGATGCTATGGTACGGAGTCACCTAGTGCAG is entered as 5450 fluorescence intensity (a.u.)
binding signal with CTCGGCATGGCCCACAACTCCCGGAATCCGCCTCACGTGGCGGAGTCACCTAGTGCAG is entered as 3420 fluorescence intensity (a.u.)

(next part)

Row | Sequence | binding signal
22 | TGAGCCTCCGCCGCCCACCGCCGCCTCGCGGGATTGTTCGCGGAGTCACCTAGTGCAG | 25300 fluorescence intensity (a.u.)
23 | TCACTTACTTGGCTACGAGTTCTTGCCATGTACACTCCATCGGAGTCACCTAGTGCAG | 3200 fluorescence intensity (a.u.)
24 | GTGGTGGTGTGTGCTCCTCGTGGCTCGCCGGATCACGTGGCGGAGTCACCTAGTGCAG | 5050 fluorescence intensity (a.u.)
25 | CGTATATATAAGCTAGCTGCTCGTTCTTGTTGGCTCCTTCCGGAGTCACCTAGTGCAG | 3140 fluorescence intensity (a.u.)
26 | TGTGGATGTACATCATCAACTAATTAAACAATCTCTCTTGCGGAGTCACCTAGTGCAG | 3530 fluorescence intensity (a.u.)
27 | CAAACAGCGACCCCGAACTCCCCAACTACCAAACCAAACTCGGAGTCACCTAGTGCAG | 3400 fluorescence intensity (a.u.)
28 | CGGCAGCCACCTCCCCACTCCATCCTCTCGTCCCCTTTTACGGAGTCACCTAGTGCAG | 3870 fluorescence intensity (a.u.)
29 | ACGAATGCTACGTACAGTCAACTTAATATTTCTTCGCCATCGGAGTCACCTAGTGCAG | 4240 fluorescence intensity (a.u.)
30 | TCTGTTCTCCATGCTGCGCAGTACCCTGAGTTGCGTCTAACGGAGTCACCTAGTGCAG | 3380 fluorescence intensity (a.u.)
31 | TGAGGAACAGGATGAGCTGGTCCTTCGATCTGGATGGGCACGGAGTCACCTAGTGCAG | 3540 fluorescence intensity (a.u.)
32 | GCAATCTTTGCCTTGGTCCTCTTGAAGTCTTTGGCGGTATCGGAGTCACCTAGTGCAG | 27700 fluorescence intensity (a.u.)
33 | TGAGTCTGAATTAGCATATAGGTCCCTCCCTCCCAAGCATCGGAGTCACCTAGTGCAG | 5600 fluorescence intensity (a.u.)
34 | CTAGCTAGCTTGGCCTGCTGCCTGCTTACTGTACATCTCTCGGAGTCACCTAGTGCAG | 3340 fluorescence intensity (a.u.)
35 | TGGCTGTACCACGTACGTCTATTACGTAGCACACTGTAGCCGGAGTCACCTAGTGCAG | 4390 fluorescence intensity (a.u.)
36 | CCGCCCTTCTGCGCGCCGCCAACACCGTTCCTCCGCCGCGCGGAGTCACCTAGTGCAG | 3260 fluorescence intensity (a.u.)
37 | CCTCACCCGCCGCGTGACGTTACCGCCCACACCCCAAACCCGGAGTCACCTAGTGCAG | 4210 fluorescence intensity (a.u.)
38 | TCTCTCTCTCTCTCTCTCTCTCTCTCCTCACGTCACATGACGGAGTCACCTAGTGCAG | 4720 fluorescence intensity (a.u.)
39 | CAACCCGCGACGTTGTCCCGTTACGCGTCAGCTTGCCACGCGGAGTCACCTAGTGCAG | 7900 fluorescence intensity (a.u.)
40 | ATTGATGCAGCCCGTAGGCTGTAGCCACGTGGATCAATAACGGAGTCACCTAGTGCAG | 9120 fluorescence intensity (a.u.)
41 | GGACAAAGAATACAACAAGAGTGTACTGCTTATATGCTCACGGAGTCACCTAGTGCAG | 3200 fluorescence intensity (a.u.)
42 | TAATATATTTCCATGTCATCAGGAGCTAATGTTGTAGATACGGAGTCACCTAGTGCAG | 5960 fluorescence intensity (a.u.)
